# Laboratory results reported in PubChem BioAssay AID1259415 (National Center for Advancing Translational Sciences (NCATS), 2018).
# The campaign covered roughly 410,000 compounds. About 18,000 (4.4%) were called active. Inconclusive results, whose numbers are uncertain, are shown with a selection of clear calls. Cut-off read from the data, not from the text of the source: active = activity change below about -60%; inconclusive = no clear call, values can overlap the other calls; inactive = above about -39%.
# Assay: qHTS Assay for inhibitors of the human cytomegalovirus (HCMV)
# Conditions: HFF cells, HCMV-luciferase reporter, 72 h; at 57.5 µM; stronger effect = lower value
# Procedure, shortened: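 Inhibition of viral replication was scored as loss of reporter luminescence in HFFs infected with HCMV-luciferase (MOI 1 PFU/cell) for 72 h; compounds tested at 2 doses, normalized to buffer and Salinomycin controls.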
# % is set by controls: 0 for no effect and ±100 for the full control effect.
row,Compound,"activity change, negative = inhibition"
1,Cc1ccc(/C=C/C(=O)c2ccccc2O)cc1,inactive: 8.77%
2,COC(=O)c1ccc(/C=C2/SC(=S)N(CCCC(=O)Nc3ccccn3)C2=O)cc1,active: -84.7%
3,O=C(CN1CCCC1)N1c2ccccc2Sc2ccc(C(F)(F)F)cc21,inconclusive: -48.1%
4,COc1ccc(S(=O)(=O)NCC(c2ccco2)S(=O)(=O)c2cccs2)cc1C (centres undefined),inconclusive: -45.1%
5,O=C(CS(=O)Cc1ccccc1Cl)Nc1ccccc1Cl (centres undefined),inconclusive: -53.5%
6,Cc1cc(N2CCC(C(=O)N3CCN(c4cccc(C)c4C)CC3)CC2)n2ncnc2n1,active: -88.6%
7,COc1ccc(NC(=O)C2(C)Cc3c(-c4cccc(NC(C)=O)c4)ccnc3O2)cc1 (centres undefined),active: -77.2%
8,O=C(Nc1cc(C(F)(F)F)ccc1N1CCOCC1)C1=NN(c2ccccc2)C(=O)CC1,inconclusive: -44.6%
9,COc1cc(NC(=O)CN2C(=O)C(c3ccccc3)=NC23CCCCCC3)cc(OC)c1,inconclusive: -42%
10,CCOc1ccccc1C(=O)Nc1ccccc1C(N)=O,inactive: -6.05%
11,CC(C)c1oc(=O)cc2c1[C@@H](O)[C@H]1OC(=O)[C@@]3(C)C[C@@H](O)[C@@H](O)[C@@]2(C)C13 (some centres undefined),active: -97.8%
12,CC(C)NC(=O)COC(=O)c1ccc(Oc2ccccc2)cc1,inactive: 1.31%
13,CCC(CO)NS(=O)(=O)c1cc(-c2nn(C)c(=O)c3ccccc23)ccc1C (centres undefined),inactive: 23.7%
14,CSCCC(NS(=O)(=O)c1ccc(Cl)cc1)C(=O)N1CCN(c2ccccc2)CC1 (centres undefined),inactive: -34.3%
15,CCOc1ccc(-c2cc(C(=O)NCc3ccc(F)cc3)[nH]n2)c(C)c1,inconclusive: -58.8%
16,COc1ccc(/C=N/NC(=O)COc2ccccc2-c2ccccc2)cc1,active: -68.4%
17,COc1cccc(/C=C(/C(=O)OCC(=O)NC2CCCCCCC2)c2ccccc2)c1,inconclusive: -58.2%
18,O=C1CC2(CCCCC2)Oc2ccc(O)cc21,inconclusive: -42%
19,COc1ccc(OC)c(NC(=O)NNC(=O)COc2ccc(-c3ccccc3)cc2)c1,inconclusive: -42.8%
20,CC(=O)C1=CCC(c2ccccc2Cl)N(S(=O)(=O)c2ccc(C)cc2)C1 (centres undefined),inconclusive: -59.1%
21,COc1ccc(Nc2ncnc3c2cnn3Cc2ccccc2)cc1,inconclusive: -45.2%
22,O=C(CN1C(=O)NC(Cc2ccccc2)C1=O)Nc1ccc(OC(F)F)cc1 (centres undefined),inactive: -7.53%
23,CCOC(=O)Cc1csc(NC(=O)c2c(-c3ccccc3)noc2C)n1,inactive: -32.7%

row,Compound,"activity change, negative = inhibition"
1,CCOc1ccc(C(=O)Nc2ccc3c(c2)CCCN3S(=O)(=O)c2ccc(C)cc2)cc1,inconclusive: -48.7%
2,CC1CCCCN1Cc1c(O)ccc2c(=O)c(-c3ccc(Cl)cc3)c(C(F)(F)F)oc12 (centres undefined),inactive: -2.04%
3,COc1ccc2c(c1)c1ncn(Cc3ccco3)c(=O)c1n2C,active: -81.2%
4,Cc1cc(N2CCN(C)CC2)nc2ccc(NC(=S)NCCC(C)C)cc12,inconclusive: -40.2%
5,CC(=O)c1cc(C)ccc1OC(=O)c1cccnc1,inactive: 36.8%
6,O=C(CNC1CCCCCC1)Nc1ccccc1N1CCCCC1,inactive: -29.4%
7,O=C(Nc1ccc(C(F)(F)F)cc1)c1cccc(-n2cnnn2)c1,inconclusive: -44.8%
8,CC(C)C[C@H]1CN=C(Nc2ccccc2)N1CC1CCCCC1,inconclusive: -48.2%
9,O=C(CSc1nc(Cc2ccccc2)nc2ccccc12)c1ccc2c(c1)OCCO2,inconclusive: -47.7%
10,CCOC(=O)c1cc(C#N)c(Nc2ccccc2OC)nc1C(F)(F)F,inconclusive: -51.4%
11,CC1(C)CC(NC(=O)COc2ccccc2Cl)CC(C)(C)N1,inconclusive: -57%
12,CCc1nc2ccc(C(=O)N3CCCC(C(N)=O)C3)cn2c1N(CCC(C)C)CCN(C)C (centres undefined),inactive: -27.2%
13,Cc1cc(NC(=O)CSCc2nc(-c3cccc(Cl)c3)oc2C)no1,inconclusive: -42%
14,Cc1c2c(nc3ccccc13)CCC(C)C2 (centres undefined),inconclusive: -54.7%
15,CC(C)CCOc1cccc(OCC(=O)Nc2ccncc2)c1,active: -76.8%
16,Nc1ccc(-c2ccc(N)c([N+](=O)[O-])c2)cc1[N+](=O)[O-],inconclusive: -50.9%
17,O=C(COC(=O)Cc1ccccc1F)Nc1cc(S(=O)(=O)N2CCOCC2)ccc1N1CCCC1,inconclusive: -53.4%
18,CCn1nnnc1SCC(=O)Nc1sc(C)c(C)c1C#N,inconclusive: -54.8%
19,COc1cccc(C(=O)N(c2ccccc2)C2C=CS(=O)(=O)C2)c1 (centres undefined),inconclusive: -46.8%
20,CCCC(=O)OC/C(O)=C(\C#N)c1nc2ccccc2[nH]1,active: -73.2%
21,CCCCOc1ccc(N2C(=O)C(C)CNC2=S)cc1 (centres undefined),active: -99.4%
22,CCOC(=O)c1cccc(NC(=O)CCOc2ccccc2)c1,inconclusive: -40.9%
23,COc1ccccc1N(CC1CO1)S(=O)(=O)c1ccc(C)cc1 (centres undefined),inconclusive: -41.6%

row,Compound,"activity change, negative = inhibition"
1,FC(F)(F)c1cccc(/C=N/NC(=S)NC2CCCCC2)c1,active: -95.1%
2,Cc1c(CC(=O)NCCCC(=O)O)c(=O)oc2cc3c(cc12)CCC(C)(C)O3,active: -86.2%
3,CCCc1c(Cc2cccc(F)c2)ncn1Cc1cccc(-c2ccccc2)c1,inconclusive: -54.5%
4,COCCCn1c(=O)c2sccc2n2c(CCCC(=O)NCc3ccccc3OC)nnc12,inconclusive: -49.1%
5,O=C(O)CNC(=O)c1ccccc1,inconclusive: -59.7%
6,Cc1[nH]nc(-c2ccc(O)cc2O)c1-c1ccc(Cl)cc1,active: -71.5%
7,COc1ccc(CCC(=O)NCc2cn3ccccc3n2)cc1,inconclusive: -41.8%
8,O=C(Nc1cccc2cccnc12)c1csc([C@@H]2O[C@H](CO)[C@H](O)[C@H](O)[C@H]2O)n1,active: -99.3%
9,COc1ccccc1/C=C/C1(C(=O)NC2CCCC2)CC(=O)N1c1ccccc1 (centres undefined),inconclusive: -40.5%
10,CC(=O)Nc1ccc2c(c1)C(C)(C)C(C)N2C (centres undefined),inconclusive: -50.7%
11,Cc1ccc(C(=O)Nc2nnc(-c3ccc(C(C)(C)C)cc3)s2)cc1,inactive: 15.1%
12,CC(=O)N1CCc2cc(S(=O)(=O)NCCC3=CCCCC3)ccc21,inconclusive: -53.7%
13,Cc1cc(C)nc(N2Cc3ccccc3C2=N)n1,inconclusive: -57.7%
14,COc1ccc(/C=N/NC(=O)c2csc(-n3nc(C)cc3C(F)(F)F)n2)cc1,inconclusive: -42.1%
15,c1ccc(C(c2ccccc2)N2CCN(c3nc4ccccc4n4cnnc34)CC2)cc1,active: -99.1%
16,CCC(=O)Nc1cccc(NC(=S)NC(=O)c2ccc(Cl)cc2Cl)c1,inconclusive: -40.2%
17,CC(C)N=c1scc(-c2cccs2)n1/N=C/c1ccc(O)c(O)c1O,inconclusive: -46.9%
18,CCCOc1ccc(C2C(C#N)=C(N)Oc3nc[nH]c(=O)c32)cc1OC (centres undefined),inactive: 31%
19,Cc1ccc(O)c(NC(=O)CCS(=O)(=O)c2nc(-c3cccs3)cc(C(F)(F)F)n2)c1,active: -99.8%
20,Cc1ccc(C(C)C)c(OCC(=O)Nc2cc(-c3nc4ccccc4[nH]3)ccc2C)c1,inconclusive: -57.3%
21,CC(C)C(=O)NCCc1nc2ccccc2n1CCc1ccccc1,inconclusive: -50.1%
22,COC(=O)c1ccc(S(=O)(=O)N2CCN(CCO)CC2)n1C,inactive: 23%
23,Cc1cccc(NC(=O)CCCSc2nc3ccccc3[nH]2)c1,inconclusive: -51.8%

row,Compound,"activity change, negative = inhibition"
1,O=C(NCc1ccccc1)NC(=O)c1ccccc1F,inactive: -13.2%
2,O=c1[nH]c2ccccc2n1C1CCN(C(c2nnnn2Cc2ccccc2)C2CC2)CC1 (centres undefined),inconclusive: -52.9%
3,COC(=O)c1ccc(NC(=O)CO/N=C2\CCCc3nonc32)cc1,inconclusive: -46%
4,CCN(CC)c1ccc(C(=O)NN)cc1,inactive: 19.3%
5,CCOc1ccccc1NC(=O)Cn1c(=O)n(Cc2ccc(OC)cc2)c(=O)c2oc3ccccc3c21,inactive: -7.68%
6,COc1ccccc1N1CCN(CCCCCCOc2ccc(F)cc2)CC1,inconclusive: -40%
7,COc1cccc(C(C(=O)NCC2CCCO2)N(C(=O)Cn2nnc3ccccc32)c2ccc(NC(C)=O)cc2)c1 (centres undefined),inactive: -39.1%
8,CN(CCOc1ccccc1)C(=O)c1cc(S(=O)(=O)N2CCCCC2)ccc1Cl,inconclusive: -40.5%
9,Cc1ccc(NC(=O)Cn2ccc([N+](=O)[O-])n2)cc1Cl,inconclusive: -42.9%
10,COc1ccc(Cl)cc1C(=O)OCC(=O)Nc1sccc1C(N)=O,inconclusive: -43.9%
11,CCSc1nc(=S)n(Cc2ccccc2)c(C)c1C(C)=O,inconclusive: -56.3%
12,Cc1cc(C)n(S(=O)(=O)c2ccccc2[N+](=O)[O-])n1,active: -60.3%
13,Cc1nc(CCNC(=O)C2CCC(=O)N(Cc3cccc(F)c3)C2)sc1C (centres undefined),inconclusive: -52.6%
14,O=C(NCc1ccco1)c1sc2cc(F)ccc2c1Cl,inconclusive: -50.1%
15,O=C1CCCN1CCCNc1nc(NCc2cccs2)nc2ccsc12,inconclusive: -52.1%
16,Nc1ccc(C=Cc2ccc(N)cc2)cc1,inconclusive: -51.7%
17,CC1CCN(C(=O)CSc2nnc(CNC(=O)c3c(F)cccc3F)o2)CC1,inconclusive: -43.6%
18,O=C(NC(O)C(=O)c1ccc(F)cc1)c1ccc(F)cc1 (centres undefined),inactive: -24.3%
19,COc1cccc(NC(=O)Nc2ccc(Cc3ccncc3)cc2)c1,inconclusive: -50.7%
20,COC(=O)c1c(C(=O)OC)c(-c2ccc(Cl)cc2)n2c1CS(=O)(=O)C2,inactive: -25.8%

# Gathered by group, the compounds so far containing fluorine.
row,Compound,"activity change, negative = inhibition"
3,O=C(CN1CCCC1)N1c2ccccc2Sc2ccc(C(F)(F)F)cc21,inconclusive: -48.1%
8,O=C(Nc1cc(C(F)(F)F)ccc1N1CCOCC1)C1=NN(c2ccccc2)C(=O)CC1,inconclusive: -44.6%
15,CCOc1ccc(-c2cc(C(=O)NCc3ccc(F)cc3)[nH]n2)c(C)c1,inconclusive: -58.8%
22,O=C(CN1C(=O)NC(Cc2ccccc2)C1=O)Nc1ccc(OC(F)F)cc1 (centres undefined),inactive: -7.53%
2,CC1CCCCN1Cc1c(O)ccc2c(=O)c(-c3ccc(Cl)cc3)c(C(F)(F)F)oc12 (centres undefined),inactive: -2.04%
7,O=C(Nc1ccc(C(F)(F)F)cc1)c1cccc(-n2cnnn2)c1,inconclusive: -44.8%
10,CCOC(=O)c1cc(C#N)c(Nc2ccccc2OC)nc1C(F)(F)F,inconclusive: -51.4%
17,O=C(COC(=O)Cc1ccccc1F)Nc1cc(S(=O)(=O)N2CCOCC2)ccc1N1CCCC1,inconclusive: -53.4%
1,FC(F)(F)c1cccc(/C=N/NC(=S)NC2CCCCC2)c1,active: -95.1%
3,CCCc1c(Cc2cccc(F)c2)ncn1Cc1cccc(-c2ccccc2)c1,inconclusive: -54.5%
14,COc1ccc(/C=N/NC(=O)c2csc(-n3nc(C)cc3C(F)(F)F)n2)cc1,inconclusive: -42.1%
19,Cc1ccc(O)c(NC(=O)CCS(=O)(=O)c2nc(-c3cccs3)cc(C(F)(F)F)n2)c1,active: -99.8%
1,O=C(NCc1ccccc1)NC(=O)c1ccccc1F,inactive: -13.2%
6,COc1ccccc1N1CCN(CCCCCCOc2ccc(F)cc2)CC1,inconclusive: -40%
13,Cc1nc(CCNC(=O)C2CCC(=O)N(Cc3cccc(F)c3)C2)sc1C (centres undefined),inconclusive: -52.6%
14,O=C(NCc1ccco1)c1sc2cc(F)ccc2c1Cl,inconclusive: -50.1%
17,CC1CCN(C(=O)CSc2nnc(CNC(=O)c3c(F)cccc3F)o2)CC1,inconclusive: -43.6%
18,O=C(NC(O)C(=O)c1ccc(F)cc1)c1ccc(F)cc1 (centres undefined),inactive: -24.3%
